No constants are given. Whether binding was seen depends on the method and setting. In cells and extracts the contact can be indirect. Some entries that bind do so weakly or less than the wild type.
Biological target: Programmed death ligand-1 (human (endogenous in primary IPF human lung fibroblasts)) (UniProt Q9NZQ7)
Assay: co-IP; PD-L1 antibody (E1L3N) or control IgG with Protein A/G PLUS-Agarose, 4 °C; RIPA whole cell lysates of serum-starved primary IPF HLFs treated with vehicle or TGF-β (5 ng/mL, 12 h); blot for Smad3

Protein sequences, listed by entry. Tags and fused reporters are not part of them. Residues count along the entry.
UniProt Q9NZQ7, residues 19-290: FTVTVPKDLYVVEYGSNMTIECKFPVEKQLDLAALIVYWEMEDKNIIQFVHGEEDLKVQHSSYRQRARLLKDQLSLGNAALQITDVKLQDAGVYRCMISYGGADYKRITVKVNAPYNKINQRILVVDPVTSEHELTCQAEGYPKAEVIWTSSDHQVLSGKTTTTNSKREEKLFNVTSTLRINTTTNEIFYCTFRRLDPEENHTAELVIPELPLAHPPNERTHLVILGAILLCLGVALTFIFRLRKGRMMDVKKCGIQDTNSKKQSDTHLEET
UniProt P84022: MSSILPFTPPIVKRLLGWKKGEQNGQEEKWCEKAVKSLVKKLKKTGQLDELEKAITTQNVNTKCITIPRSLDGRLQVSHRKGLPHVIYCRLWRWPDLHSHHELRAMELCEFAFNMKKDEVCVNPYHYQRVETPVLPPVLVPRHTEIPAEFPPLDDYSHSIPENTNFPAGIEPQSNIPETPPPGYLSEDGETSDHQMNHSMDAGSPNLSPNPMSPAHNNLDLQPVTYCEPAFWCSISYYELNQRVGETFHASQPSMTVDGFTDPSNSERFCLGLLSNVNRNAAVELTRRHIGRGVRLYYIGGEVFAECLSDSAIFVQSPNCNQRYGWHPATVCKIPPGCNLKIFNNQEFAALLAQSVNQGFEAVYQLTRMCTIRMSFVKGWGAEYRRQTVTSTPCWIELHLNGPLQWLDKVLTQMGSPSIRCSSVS

For Smad3 (from UniProt P84022 1-425), the binding was “binds”.

Source: paper PMC8866514
